Source: patent US7414048B2, “4,5-dihydro-isoxazole derivatives and their pharmaceutical use” (Janssen Pharmaceutica, N.V., priority 1998, dated 2008)
The name of at least one read-out is uncertain.

Tested on: T cell blast formation in human blood
Test: In vitro inhibition of T cell blast formation in human blood (human whole blood blast formation, PHA stimulated, flow cytometry)
Type: cell-based
Settings: Test Dose 1 × 10^−6 (unit not given), 72 hours, mean where multiple measurements
Description: Cells are collected after a 72 hours culture period at 37° C., supernatant is removed by centrifugation and red blood cells are lysed by a hypotonic buffer. The remaining white blood cells are collected in PBS containing propidium iodide. The blast formation is analyzed using a benchtop flow cytometer (Cytoron, Ortho) equipped with an argon-ion laser. […] When multiple measurements were performed, a mean value was calculated for the percentage inhibition of T cell blast formation.

## C=C(c1ccccc1)c1ccc(NC(=O)C2CC(c3cccnc3)=NO2)cc1 (racemic) [Compound 378, (±)4,5-dihydro-N-[4-(1-phenylethenyl)phenyl]-3-(3-pyridinyl)-5-isoxazolecarboxamide]
  % Inhibition of T cell blast formation: 75%
